Source: ChEMBL document CHEMBL3988442, “University of Dundee, Small-Polar-MMV Screening Library” (2021).

By UniProt entry, the sequences of proteins in these tests, tags left out. Residues count along the entry.
UniProt P9WPC5, whole entry: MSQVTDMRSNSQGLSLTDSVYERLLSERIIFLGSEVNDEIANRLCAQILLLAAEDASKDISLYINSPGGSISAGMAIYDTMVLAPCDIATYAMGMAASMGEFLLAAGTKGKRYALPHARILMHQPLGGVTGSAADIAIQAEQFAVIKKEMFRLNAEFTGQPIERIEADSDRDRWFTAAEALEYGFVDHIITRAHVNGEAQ
UniProt P9WPC3, whole entry partner: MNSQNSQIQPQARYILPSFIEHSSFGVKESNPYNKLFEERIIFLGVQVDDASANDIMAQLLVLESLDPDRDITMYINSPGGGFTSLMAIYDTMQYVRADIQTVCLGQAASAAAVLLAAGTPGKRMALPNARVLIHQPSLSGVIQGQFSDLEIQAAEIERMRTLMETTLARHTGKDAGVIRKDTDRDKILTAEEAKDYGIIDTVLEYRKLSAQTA
UniProt Q4DA54, 1-478: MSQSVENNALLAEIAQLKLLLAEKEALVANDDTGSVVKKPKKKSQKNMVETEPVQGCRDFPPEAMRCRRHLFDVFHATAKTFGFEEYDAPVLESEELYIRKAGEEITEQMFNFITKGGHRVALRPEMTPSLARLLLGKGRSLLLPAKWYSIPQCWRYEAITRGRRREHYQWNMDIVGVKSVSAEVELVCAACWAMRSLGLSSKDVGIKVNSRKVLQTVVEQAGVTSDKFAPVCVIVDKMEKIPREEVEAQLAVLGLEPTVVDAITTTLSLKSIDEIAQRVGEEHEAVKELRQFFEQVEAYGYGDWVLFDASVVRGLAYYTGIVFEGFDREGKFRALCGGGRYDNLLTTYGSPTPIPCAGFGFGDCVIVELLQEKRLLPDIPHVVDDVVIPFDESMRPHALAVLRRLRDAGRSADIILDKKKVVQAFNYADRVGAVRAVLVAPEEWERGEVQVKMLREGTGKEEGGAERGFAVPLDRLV
UniProt Q8IDJ8, 1-583: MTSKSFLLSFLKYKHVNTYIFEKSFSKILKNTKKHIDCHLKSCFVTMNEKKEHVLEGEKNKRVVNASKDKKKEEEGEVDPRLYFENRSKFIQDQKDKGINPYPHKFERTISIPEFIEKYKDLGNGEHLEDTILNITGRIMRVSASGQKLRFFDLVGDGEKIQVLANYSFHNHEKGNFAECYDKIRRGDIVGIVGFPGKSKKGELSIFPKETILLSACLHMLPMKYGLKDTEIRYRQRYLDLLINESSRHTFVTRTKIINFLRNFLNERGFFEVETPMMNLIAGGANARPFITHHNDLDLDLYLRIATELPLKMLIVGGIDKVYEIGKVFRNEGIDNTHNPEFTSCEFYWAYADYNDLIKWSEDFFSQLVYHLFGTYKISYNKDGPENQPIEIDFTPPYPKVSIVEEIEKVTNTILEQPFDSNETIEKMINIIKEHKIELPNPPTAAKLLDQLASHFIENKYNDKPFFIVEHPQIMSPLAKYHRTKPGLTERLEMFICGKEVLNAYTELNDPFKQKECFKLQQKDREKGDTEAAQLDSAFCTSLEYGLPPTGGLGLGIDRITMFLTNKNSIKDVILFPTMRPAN
UniProt P9WNZ1, whole entry: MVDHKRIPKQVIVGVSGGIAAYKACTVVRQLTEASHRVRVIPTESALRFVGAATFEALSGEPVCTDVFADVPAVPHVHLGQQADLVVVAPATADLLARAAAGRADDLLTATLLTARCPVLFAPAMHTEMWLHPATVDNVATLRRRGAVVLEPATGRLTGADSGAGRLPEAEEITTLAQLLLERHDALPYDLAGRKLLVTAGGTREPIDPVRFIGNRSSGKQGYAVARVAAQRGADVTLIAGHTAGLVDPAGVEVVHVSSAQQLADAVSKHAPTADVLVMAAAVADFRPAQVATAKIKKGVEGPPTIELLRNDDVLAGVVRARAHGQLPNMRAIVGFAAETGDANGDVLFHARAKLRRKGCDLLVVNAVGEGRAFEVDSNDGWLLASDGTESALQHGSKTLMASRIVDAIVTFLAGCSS
UniProt I6X8D2, whole entry: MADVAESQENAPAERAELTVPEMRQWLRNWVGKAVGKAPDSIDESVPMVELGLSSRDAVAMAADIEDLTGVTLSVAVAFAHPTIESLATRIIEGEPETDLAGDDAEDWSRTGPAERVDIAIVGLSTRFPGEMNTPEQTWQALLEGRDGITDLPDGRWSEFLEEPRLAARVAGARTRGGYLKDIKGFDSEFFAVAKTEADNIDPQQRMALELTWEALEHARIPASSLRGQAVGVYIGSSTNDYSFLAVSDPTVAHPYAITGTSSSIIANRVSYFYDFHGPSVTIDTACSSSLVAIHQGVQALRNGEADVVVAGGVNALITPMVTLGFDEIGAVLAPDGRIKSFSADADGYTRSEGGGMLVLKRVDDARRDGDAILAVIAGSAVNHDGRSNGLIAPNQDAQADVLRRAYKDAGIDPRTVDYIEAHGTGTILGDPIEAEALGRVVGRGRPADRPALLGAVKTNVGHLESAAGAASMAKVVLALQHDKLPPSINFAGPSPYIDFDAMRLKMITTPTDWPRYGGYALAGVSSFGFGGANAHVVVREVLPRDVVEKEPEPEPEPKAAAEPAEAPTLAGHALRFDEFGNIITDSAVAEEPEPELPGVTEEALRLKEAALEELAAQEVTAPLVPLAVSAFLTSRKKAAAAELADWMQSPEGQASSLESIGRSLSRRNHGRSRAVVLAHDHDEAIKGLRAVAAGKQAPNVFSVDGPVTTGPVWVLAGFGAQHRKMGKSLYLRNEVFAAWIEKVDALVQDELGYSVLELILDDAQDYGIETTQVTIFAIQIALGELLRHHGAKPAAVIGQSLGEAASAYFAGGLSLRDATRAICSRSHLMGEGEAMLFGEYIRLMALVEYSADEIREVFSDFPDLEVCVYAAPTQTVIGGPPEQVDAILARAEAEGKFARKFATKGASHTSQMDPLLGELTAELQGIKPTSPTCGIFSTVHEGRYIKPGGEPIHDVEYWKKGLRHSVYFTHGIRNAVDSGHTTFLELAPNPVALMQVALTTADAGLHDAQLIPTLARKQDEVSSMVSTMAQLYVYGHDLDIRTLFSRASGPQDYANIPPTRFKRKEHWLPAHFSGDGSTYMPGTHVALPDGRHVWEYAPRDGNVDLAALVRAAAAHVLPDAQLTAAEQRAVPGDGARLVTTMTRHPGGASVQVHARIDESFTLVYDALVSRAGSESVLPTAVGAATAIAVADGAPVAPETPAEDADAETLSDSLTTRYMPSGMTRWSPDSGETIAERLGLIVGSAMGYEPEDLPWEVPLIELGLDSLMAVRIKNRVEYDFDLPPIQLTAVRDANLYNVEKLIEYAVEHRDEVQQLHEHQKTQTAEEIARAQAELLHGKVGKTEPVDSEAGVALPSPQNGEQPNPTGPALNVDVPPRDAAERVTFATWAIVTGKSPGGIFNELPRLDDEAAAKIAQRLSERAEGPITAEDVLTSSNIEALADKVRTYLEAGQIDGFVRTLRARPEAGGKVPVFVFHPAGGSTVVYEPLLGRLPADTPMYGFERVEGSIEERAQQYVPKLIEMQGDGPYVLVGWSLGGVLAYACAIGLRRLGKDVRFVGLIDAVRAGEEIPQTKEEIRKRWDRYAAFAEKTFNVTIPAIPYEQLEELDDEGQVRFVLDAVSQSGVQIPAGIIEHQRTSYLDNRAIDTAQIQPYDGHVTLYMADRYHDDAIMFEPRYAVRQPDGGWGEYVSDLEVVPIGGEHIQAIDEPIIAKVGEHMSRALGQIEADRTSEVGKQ

A: 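ClpP1P2, Mycobacterium tuberculosis (UniProt P9WPC5 and UniProt P9WPC3). Protease assay of ClpP1P2, read by the AMC dye that it sets free. Compounds at 50 µM. Higher reads as stronger inhibition, judged from the few compounds that gave an IC50. Most other retested compounds had strongly negative values. Size under these conditions: about 69,000 compounds, about 10 of them at 50% or above in at least one test.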
B: 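Enzyme assay of histidyl-tRNA synthetase; the read-out is not stated. Target: Histidine-tRNA ligase, Trypanosoma cruzi CL Brener (UniProt Q4DA54). Tested at 30 µM. Higher reads as stronger inhibition (inferred: compounds with an IC50 in retests scored well above the rest). About 69,000 compounds were tested under these conditions; 0.045% (about 31) showed 50% or more at least once.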
C: 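Enzyme assay of the cytosolic lysyl-tRNA synthetase in 384-well plates, read by luminescence. Target: Lysine-tRNA ligase, Plasmodium falciparum 3D7 (UniProt Q8IDJ8). Compounds at 30 µM. Higher reads as stronger inhibition, judged from the few compounds that gave an IC50. Of about 69,000 compounds tested this way, about 49 (0.071%) reached 50% or more in at least one test.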
D: 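Coenzyme A biosynthesis protein CoaBC, Mycobacterium tuberculosis (UniProt P9WNZ1). Enzyme assay of CoaBC with a phosphate dye (Biomol Green) read at 650 nm. Tested at 30 µM. Higher reads as stronger inhibition, judged from the few compounds that gave an IC50. Most strong results did not repeat in a second test. About 67,000 compounds were tested under these conditions; 0.06% (about 40) showed 50% or more at least once.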
E: 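Cell assay of Leishmania donovani living inside macrophages; the read-out is not stated. Tested at 30 µM. Higher reads as stronger inhibition (inferred: compounds with an IC50 in retests scored well above the rest). Size under these conditions: about 69,000 compounds, about 1,000 of them at 50% or above in at least one test.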
F: 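Polyketide synthase Pks13, Mycobacterium tuberculosis (UniProt I6X8D2). Enzyme assay of the thioesterase domain of polyketide synthase 13; the read-out is not stated. Concentration: 30 µM. Higher reads as stronger inhibition (inferred from which compounds were picked for retests). About 67,000 compounds were tested under these conditions; 0.46% (about 300) showed 50% or more at least once.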

Results are given as percent effect. The controls that fix the scale are not given in the record; negative values are as filed. The compounds are a random part of those screened. A dash means the value is not listed here; it may have been measured.

structure,A,B,C,D,E,F
Cc1csc2c(N3CCC(NCCCC4CCOC4)CC3)ncnc12 (configuration not stated),12.31,3.518,-3.542,0.3619,10.77,-3.657
Cc1cccnc1CC(C)N(C)C(=O)c1cccs1 (configuration not stated),5.038,9.091,0.7574,-1.739,22.03,-35.88
Cc1cc(NC(=O)C(C#N)Cc2cnn(C)c2C)no1 (configuration not stated),0.4669,6.186,4.883,12.26,-0.6797,-2.335
O=C(COCc1ccccc1)N1CCCn2cncc2C1,-0.1329,5.6,4.281,-10.17,-3.255,-32.02
CC(=O)Nc1nc(-c2ccc(F)cc2)c[nH]1,-12.74,3.415,-6.475,-1.631,-6.024,-6.36
Cc1nc(C2(O)CCCNCC2)sc1CCOc1ccc(F)cc1.Cl (configuration not stated),-,-,-,-,8.294,-
O=S(=O)(C1CC1)N1CCC2(CC1)CN(Cc1ccccn1)CCO2,15.89,-1.111,2.961,-3.415,-,-17.61
O=C(NC1CCN(c2ccccc2Br)C1)c1c[nH]nn1 (configuration not stated),-0.6611,11,3.609,6.116,20.59,-65.73
O=C(NCC1CC1)C1CCC2(CCN(C(=O)c3ccoc3)CC2)O1 (configuration not stated),16.83,1.442,6.163,9.176,12.42,-28.97
O=C(O)C(F)(F)F.O=C(O)C(F)(F)F.[H][C@]12CCN(Cc3ccccn3)[C@@]1([H])CC[C@H](COCC1CCOCC1)O2,-,-,-,-,17.8,-
CCNC(=O)CCC(=O)NCC1(O)CCC(C(C)(C)C)CC1 (configuration not stated),4.454,7.182,0.0996,6.696,24.44,-26.54
CNc1ccc(C)cc1C(=O)N1CCCC2(CCNC2)C1 (configuration not stated),-8.055,3.478,0.2443,1.284,-0.682,4.294
CCc1nc(C2CCCN2CCCS(=O)(=O)c2ccccc2)no1 (configuration not stated),29.98,2.29,2.11,7.772,12.53,-10.4
Cc1nc(CN2CCC3(CCCN(C(=O)c4cnccn4)C3)C2)cs1.O=C(O)C(F)(F)F (configuration not stated),-,-,-,-,-5.216,-
O=C(O)C(F)(F)F.[H][C@@]12CCN(c3nncs3)C[C@@]1([H])O[C@@H](C(=O)NCc1ccco1)C2,-,-,-,-,0.882,-
Cc1nn(C)c(C)c1C1CCCN1C(=O)c1nccnc1N (configuration not stated),-340.2,0.2865,0.6337,3.106,27.6,1.271
NC(=O)C1CCN(C(=O)NC2CCN(CC3CCCC3)C2)CC1 (configuration not stated),1.96,10.88,5.368,-8.854,54.02,-17.86
CC(=O)C(C)CC(=O)N(Cc1cccc(C)c1)C(C)C (configuration not stated),-9.819,4.255,2.677,-0.8032,-21.98,-17.47
NC(=O)CCN1C(=O)CC(Cc2ccc(F)cc2)C1=O (configuration not stated),-14.68,0,2.385,0.489,-10.96,-9.71
CC(C)CN1CCC2(CCN(Cc3ccc(F)cc3)CC2)C1=O.O=C(O)C(F)(F)F,-,-,-,-,10.61,-
Cc1ccc(Sc2ccc(N3CCCC(C(=O)O)C3)nn2)cc1 (configuration not stated),-13.33,13.17,5.044,-0.1255,5.043,-7.563
CC(C)C(C(=O)N1CCN(Cc2ccncc2)CC1)n1cncn1 (configuration not stated),-0.5868,0.8368,-0.1751,3.636,7.462,-17.04
Cc1nc[nH]c1CN1CCn2nc(CN3CC[C@H](F)C3)cc2C1,-14.11,-5.882,17.33,7.991,24.16,-21.36
Cc1nc(C)n(CC2CCCN2CC(=O)NCc2ccco2)n1 (configuration not stated),-12.61,1.653,-3.953,8.316,23.52,-6.832
CN(Cc1cccs1)C(=O)CN(C)C1CCc2ccccc21 (configuration not stated),-1.648,2.521,-0.5124,4.839,-20.02,-3.117
Cc1c(C(=O)NCCCS(C)(=O)=O)cccc1-c1ccccn1,-12.8,3.483,0.2552,6.399,24.91,1.335
COCC(=O)N1CCC2(C1)c1ccccc1S(=O)(=O)N2CC1CC1 (configuration not stated),0.8561,4.444,2.622,1.951,-3.316,-
CC(=O)c1cc(CN2C[C@@H](NS(=O)(=O)N(C)C)[C@H](C(C)C)C2)cs1,8.866,1.734,2.704,-11.98,4.855,7.885
CNc1nccc(-c2cn(C)nc2C)n1,-7.014,0,6.658,10.71,-16.33,0.01724
CNc1snc(C)c1C(=O)N1CCCC(n2ccnc2)C1 (configuration not stated),-10.33,2.825,0.2079,3.133,8.91,-11.01
O=C(NCc1ccccc1Cn1cncn1)C1CCCCC1,0.3782,7.514,1.111,3.781,22.06,-0.329
O=C(O)C(F)(F)F.[H][C@@]12CCN(Cc3nc(C)cs3)C[C@@]1([H])O[C@@H](c1nc(C)no1)C2,-,-,-,-,-17.37,-
CCc1cnc(NCCS(=O)(=O)N(C)C)nc1,10.59,-3.59,1.151,2.733,-13.46,-26.37
Cc1noc(CNC(=O)c2ccccc2-n2cc(CN)cn2)n1,-12.62,5.993,0.7682,1.115,-6.43,-1.317
COCC(=O)N1CCC[C@]2(C(=O)N(C)C)CN(c3ccccn3)C[C@@H]2C1,-0.1782,7.027,0.7831,8.756,-,-2.297
Cc1ncsc1CN1C[C@H](NC(=O)C2CCOCC2)[C@@H](C(C)C)C1,-2.05,3.017,0.1932,4.943,-30.21,-3.41
CCC1(C(=O)O)CCCN(C(=O)c2ccc(N3CCN(C)CC3)cc2)C1 (configuration not stated),5.597,2.597,-0.1345,2.439,-5.066,5.981
COCC(=O)N1CCN(C(C)=O)C[C@@H]1C(=O)OC,-2.264,1.087,0.5044,1.545,0.9568,29.81
O=C(NC1CC1)c1cnc2n1CCCC2,-3.139,0,3.719,3.313,12.4,-1.836
Cc1cc(F)ccc1S(=O)(=O)N1C[C@@H](C)[C@@](C)(O)C1,-7.577,5.155,1.533,7.253,17.2,-29.06
Cc1nc(NCCO)cc(C(C)Cn2nc(C)c(C)c2C)n1 (configuration not stated),1.476,12.88,-0.02846,-6.833,46.02,3.872
CCc1nnc2n1CCN(C(=O)c1cc(Cl)c[nH]1)C2,-28.9,9.412,0.8406,2.558,30.7,-2.935
COC(=O)CNC(=O)c1cn(Cc2ccccc2F)nn1,-5.976,5.263,-3.901,-,8.414,-14.57
COc1ccc(CNc2cnn(CC(F)F)c2)cc1,4.256,5.78,2.985,0.3681,11.01,5.673
CN1CCCC(CNC(=O)CN(C)S(=O)(=O)c2cccnc2)C1 (configuration not stated),-2.67,2.762,3.489,5.987,-4.847,3.208
O=C(N[C@H]1COC[C@@H]1N1CCCC1)c1csc(Cc2ccccc2)n1,-3.799,19.1,1.376,7.12,14.85,-7.42

The first 3 entries again:

structure	A	B	C	D	E	F
Cc1csc2c(N3CCC(NCCCC4CCOC4)CC3)ncnc12 (configuration not stated)	12.31	3.518	-3.542	0.3619	10.77	-3.657
Cc1cccnc1CC(C)N(C)C(=O)c1cccs1 (configuration not stated)	5.038	9.091	0.7574	-1.739	22.03	-35.88
Cc1cc(NC(=O)C(C#N)Cc2cnn(C)c2C)no1 (configuration not stated)	0.4669	6.186	4.883	12.26	-0.6797	-2.335